Results as given in patent US20030198990A1.
No constants are given. Whether binding was seen depends on the method and setting. For part of these data: In cells and extracts the contact can be indirect. Some binding calls cover weakened binding; strength is not graded here. For part of these data: Sequences can lack the tags named with a protein.

Protein sequences, listed by entry. Tags and fused reporters are not part of them. Lines headed by an entry give the natural chain unless they say otherwise; changes in a name come on top.
UniProt P10275: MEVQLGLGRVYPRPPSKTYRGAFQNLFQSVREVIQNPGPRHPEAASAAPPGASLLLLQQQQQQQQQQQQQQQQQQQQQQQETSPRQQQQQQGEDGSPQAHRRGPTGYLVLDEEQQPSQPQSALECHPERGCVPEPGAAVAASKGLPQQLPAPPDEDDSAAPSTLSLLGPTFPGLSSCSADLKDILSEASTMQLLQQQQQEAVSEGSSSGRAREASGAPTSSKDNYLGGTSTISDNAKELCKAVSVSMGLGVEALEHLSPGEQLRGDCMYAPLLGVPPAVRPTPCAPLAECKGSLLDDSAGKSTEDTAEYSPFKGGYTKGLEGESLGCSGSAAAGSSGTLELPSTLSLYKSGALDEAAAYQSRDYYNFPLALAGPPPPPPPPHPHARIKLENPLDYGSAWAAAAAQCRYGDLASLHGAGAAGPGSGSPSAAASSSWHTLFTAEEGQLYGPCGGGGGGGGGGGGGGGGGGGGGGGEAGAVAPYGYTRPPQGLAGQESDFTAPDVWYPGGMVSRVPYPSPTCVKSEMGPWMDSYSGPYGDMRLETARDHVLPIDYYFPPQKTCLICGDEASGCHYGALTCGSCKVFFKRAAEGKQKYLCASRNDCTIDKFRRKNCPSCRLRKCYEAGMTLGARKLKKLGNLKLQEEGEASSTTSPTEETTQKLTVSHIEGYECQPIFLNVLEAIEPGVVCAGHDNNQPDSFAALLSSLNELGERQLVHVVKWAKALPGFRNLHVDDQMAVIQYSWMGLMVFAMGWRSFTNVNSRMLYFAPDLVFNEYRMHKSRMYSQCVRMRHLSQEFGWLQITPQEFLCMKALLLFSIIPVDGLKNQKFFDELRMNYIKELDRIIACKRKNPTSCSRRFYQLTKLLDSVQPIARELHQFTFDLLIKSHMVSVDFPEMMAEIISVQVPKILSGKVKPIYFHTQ
UniProt P04386: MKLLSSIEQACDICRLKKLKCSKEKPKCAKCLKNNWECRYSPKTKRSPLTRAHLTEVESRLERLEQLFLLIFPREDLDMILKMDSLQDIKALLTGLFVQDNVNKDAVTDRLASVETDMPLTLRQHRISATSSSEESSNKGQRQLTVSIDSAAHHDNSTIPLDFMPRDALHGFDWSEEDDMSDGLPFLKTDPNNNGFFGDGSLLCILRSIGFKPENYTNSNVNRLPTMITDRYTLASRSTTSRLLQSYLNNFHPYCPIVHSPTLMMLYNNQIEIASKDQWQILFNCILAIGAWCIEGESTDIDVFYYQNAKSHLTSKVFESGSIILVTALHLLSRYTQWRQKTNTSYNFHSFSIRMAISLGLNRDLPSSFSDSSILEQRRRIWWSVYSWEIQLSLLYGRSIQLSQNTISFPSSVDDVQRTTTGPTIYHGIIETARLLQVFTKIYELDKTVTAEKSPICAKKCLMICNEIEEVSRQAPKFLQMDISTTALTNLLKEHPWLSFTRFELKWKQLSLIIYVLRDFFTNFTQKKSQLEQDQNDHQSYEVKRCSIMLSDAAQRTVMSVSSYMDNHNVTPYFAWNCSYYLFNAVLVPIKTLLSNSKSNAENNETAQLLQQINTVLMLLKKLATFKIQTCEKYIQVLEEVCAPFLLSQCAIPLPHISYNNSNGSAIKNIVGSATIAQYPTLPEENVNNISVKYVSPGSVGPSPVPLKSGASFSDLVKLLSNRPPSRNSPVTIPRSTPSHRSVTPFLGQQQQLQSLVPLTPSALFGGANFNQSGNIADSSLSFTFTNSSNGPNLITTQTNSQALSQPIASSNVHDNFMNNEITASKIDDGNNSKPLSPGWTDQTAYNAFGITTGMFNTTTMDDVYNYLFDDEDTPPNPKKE

B1: Full-length Rb fused to glutathione-S-transferase (GST-Rb1-928) (protein, not shown: a dimerising Fc or GST)
chain: MPPKTPRKTAATAAAAAAEPPAPPPPPPPEEDPEQDSGPEDLPLVRLEFEETEEPDFTALCQKLKIPDHVRERAWLTWEKVSSVDGVLGGYIQKKKELWGICIFIAAVDLDEMSFTFTELQKNIEISVHKFFNLLKEIDTSTKVDNAMSRLLKKYDVLFALFSKLERTCELIYLTQPSSSISTEINSALVLKVSWITFLLAKGEVLQMEDDLVISFQLMLCVLDYFIKLSPPMLLKEPYKTAVIPINGSPRTPRRGQNRSARIAKQLENDTRIIEVLCKEHECNIDEVKNVYFKNFIPFMNSLGLVTSNGLPEVENLSKRYEEIYLKNKDLDARLFLDHDKTLQTDSIDSFETQRTPRKSNLDEEVNVIPPHTPVRTVMNTIQQLMMILNSASDQPSENLISYFNNCTVNPKESILKRVKDIGYIFKEKFAKAVGQGCVEIGSQRYKLGVRLYYRVMESMLKSEEERLSIQNFSKLLNDNIFHMSLLACALEVVMATYSRSTSQNLDSGTDLSFPWILNVLNLKAFDFYKVIESFIKAEGNLTREMIKHLERCEHRIMESLAWLSDSPLFDLIKQSKDREGPTDHLESACPLNLPLQNNHTAADMYLSPVRSPKKKGSTTRVNSTANAETQATSAFQTQKPLKSTSLSLFYKKVYRLAYLRLNTLCERLLSEHPELEHIIWTLFQHTLQNEYELMRDRHLDQIMMCSMYGICKVKNIDLKFKIIVTAYKDLPHAVQETFKRVLIKEEEYDSIIVFYNSVFMQRLKTNILQYASTRPPTLSPIPHIPRSPYKFPSSPLRIPGGNIYISPLKSPYKISEGLPTPTKMTPRSRILVSIGESFGTSEKFQKINQMVCNSDRVLKRSAEGSNPPKPLKKLRFDIEGSDEADGSKHLPGESKFQQKLAEMTSTRTRMQKQKMNDSMDTSNKEEK
B2: ARA54, full length (protein)
chain: MSSEDREAQEDELLALASIYDGDEFRKAESVQGGETRIYLDLPQNFKIFVSGNSNECLQNSGFEYTICFLPPLVLNFELPPDYPSSSPPSFTLSGKWLSPTQLSALCKHLDNLWEEHRGSVVLFAWMQFLKEETLAYLNIVSPFELKIGSQKKVQRRTAQASPNTELDFGGAAGSDVDQEEIVDERAVQDVESLSNLIQEILDFDQAQQIKCFNSKLFLCSICFCEKLGSECMYFLECRHVYCKACLKDYFEIQIRDGQVQCLNCPEPKCPSVATPGQVKELVEAELFARYDRLLLQSSLDLMADVVYCPRPCCQLPVMQEPGCTMGICSSCNFAFCTLCRLTYHGVSPCKVTAEKLMDLRNEYLQADEANKRLLDQRYGKRVIQKALEEMESKEWLEKNSKSCPCCGTPIEKLDGCNKMTCTGCMQYFCWICMGSLSRANPYKHFNDPGSPCFNRLFYAVDVDDDIWEDEVED

What was measured:
[1] = molecular target: His-tag column purified baculovirus AR (UniProt P10275); test: GST pull-down on glutathione-Sepharose beads, with or without DHT, Western blot with anti-AR NH27
[2] = molecular target: His-tag column purified baculovirus AR (UniProt P10275); test: summing-up sentence of the examples (GST pull-down and two-hybrid)
[3] = molecular target: GAL0AR: hormone binding domain of wtAR fused to the GAL4 DBD (human) (UniProt P04386+P10275); test: mammalian two-hybrid, CAT reporter, DU145 cells, 10^-8 M DHT

| Binder | binding [1] | binding [2] | binding [3] |
| --- | --- | --- | --- |
| B1 | binds | binds |  |
| B2 |  |  | binds |
